According to PubChem BioAssay AID540256 (National Center for Advancing Translational Sciences (NCATS), 2011):
Where “and” joins values, the source holds several entries; their conditions need not be identical. Identical values can stand only once. The whole screen tested about 300,000 compounds, of which about 3,700 (1.2%) were called active. The inconclusive results got no clear call from the source; some entries with a clear call stand among them for comparison. Calls come from the whole dose curve; tested in HEK293 cells. Potencies beside an inconclusive call are fits to weak or partial responses and may not hold up.

Assay: qHTS for Inhibitors of binding or entry into cells for Lassa Virus; note: nearly all actives have a fitted effect of over 50% in size
Conditions: Lassa virus pseudotype entry inhibition, cell reporter; series mostly up to 37.9 µM
Potency is the fitted concentration of half-maximal effect.

Row | Compound | Potency
1 | CCc1nnc(NC(=O)c2nc(S(=O)(=O)Cc3cccc(C)c3)ncc2Cl)s1 | inconclusive: 12.6 µM [inhibitor, partial curve] and inconclusive: 22.4 µM [inhibitor, single point]
2 | Nc1ccc2nc(-c3cccnc3)[nH]c2c1 | inconclusive: 29.1 µM [activator, partial curve, poor fit]
3 | Clc1cc2nc(-c3cccnc3Cl)[nH]c2cc1Cl | inactive
4 | O=C(COC(=O)c1cccc(-n2cnnn2)c1)Nc1c(Cl)cccc1C(F)(F)F | inconclusive: 35.5 µM [inhibitor, single point]
5 | CCOc1ccc(-c2nc3ccccc3c(=O)o2)cc1 | inactive and inconclusive: 1.26 µM [activator, single point]
6 | CC(=O)Oc1c(-c2ccco2)oc2ccccc2c1=O | inconclusive: 15.8 µM [inhibitor, single point]
7 | COc1cccc2cc(C(=O)OCC(=O)N3CC(C)OC(C)C3)c(=O)oc12 (configuration not stated) | inconclusive: 2.82 µM [activator, single point]
8 | O=C(N/N=C/c1ccc(OCc2ccccc2)cc1)c1ccc(O)cc1 | inconclusive: 12.6 µM [inhibitor, single point]
9 | Cc1ccc(Nc2cc(C)nc3nncn23)c(C)c1 | inactive
10 | CCOC(=O)c1cccc(NC(=O)[C@H](CSCc2ccccc2)N2Cc3ccccc3C2=O)c1 | inactive
11 | CCN1CCN(c2cc(SC(C)C)nc(-c3ccc(OC)cc3)n2)CC1 | inconclusive: 20 µM [inhibitor, partial curve, poor fit]
12 | COc1ccc(/C=C/C(=O)NCC(=O)N/N=C(\C)Cc2ccccc2)cc1 | inconclusive: 6.31 µM [activator, single point]
13 | Oc1ccc(Br)cc1/C=N/n1c(C2CCCCC2)n[nH]c1=S | inconclusive: 3.98 µM [inhibitor, full curve, poor fit]
14 | O=C(NCC1CCCO1)C(=Cc1cccc([N+](=O)[O-])c1)C(=O)NCC1CCCO1 (configuration not stated) | inconclusive: 9.2 µM [inhibitor, partial curve]
15 | COc1ccccc1CNC(=O)c1ccc2c(c1)OCO2 | inactive
16 | Cc1cc(C)c(C#N)c(SCC(=O)N(CCC#N)c2ccc3c(c2)OCCO3)n1 | inconclusive: 3.55 µM [activator, partial curve, poor fit]
17 | Cc1ccc(-n2c(=O)c3ccc(C(=O)NCc4ccccc4Cl)cc3n(CC(=O)Nc3ccc(C)cc3C)c2=O)cc1 | inconclusive: 31.6 µM [activator, single point]
18 | CS(=O)(=O)Nc1ccc(C(=O)Nc2ccc3ccccc3c2)cc1 | inactive
19 | CC(C)C1OC(c2cccc(NC(=O)c3cccs3)c2)OCC1(C)C (configuration not stated) | inconclusive: 20 µM [inhibitor, single point]
20 | Cc1cn2c(=O)cc(COc3ccc(NC(=O)COc4ccccc4)cc3)nc2s1 | inactive
21 | C[C@@H]1[C@@H](c2ccccc2)Oc2c(Cl)cccc2S(=O)(=O)N1Cc1ccc(F)cc1F | inconclusive: 0.0995 µM [activator, full curve, poor fit]

Row | Compound | Potency
22 | CN(CC(=O)Nc1ccc(N2CCOCC2)cc1)CC(=O)Nc1ccc([N+](=O)[O-])cc1Br | inconclusive: 22.4 µM [inhibitor, single point]
23 | CSc1ccccc1NC(=O)Nc1ccccc1 | inactive
24 | CCN(CC)S(=O)(=O)c1ccc2[nH]c(=O)cc(C(=O)Nc3ccc(C)c(S(=O)(=O)N(CC)CC)c3)c2c1 | inconclusive: 3.16 µM [inhibitor, partial curve, poor fit]
25 | C#CC(C)(CC)NC(=O)Cn1nnc(-c2ccc(OCc3c(F)cccc3Cl)cc2)n1 (configuration not stated) | inconclusive: 11.2 µM [inhibitor, partial curve, poor fit]
26 | Cc1ccc(S(=O)(=O)/N=C2\C=C(Nc3cccc(C(=O)O)c3)C(=O)c3ccccc32)cc1 | inconclusive: 35.5 µM [inhibitor, partial curve, poor fit]
27 | Cc1ccc(-c2nn(-c3ccccc3)cc2CN(Cc2ccccc2)C(=O)c2ccco2)o1 | inconclusive: 29.1 µM [inhibitor, single point]
28 | Cc1[nH]c(=O)n(C(C)C)c(=O)c1Br | inactive
29 | C#CC1CCCCC1NC(=O)Nc1cnccc1C(F)(F)F (configuration not stated) | inactive
30 | O=C(COc1ccc(Cl)cc1)Nc1ccc(N2CCN(C(=O)c3ccco3)CC2)cc1 | inconclusive: 20.6 µM [inhibitor, single point]
31 | OC(c1ccccc1)(c1ccc(F)cc1)C(c1ccccc1)N1CCOCC1 (configuration not stated) | inconclusive: 35.5 µM [inhibitor, single point]
32 | CC(C)(C)C(=O)Nc1nnc(SCC(=O)Nc2nccs2)s1 | inconclusive: 35.5 µM [inhibitor, single point]
33 | CCOCC(=O)Nc1ccc2c(c1)N(S(=O)(=O)c1cccs1)CCC2 | inconclusive: 5.62 µM [inhibitor, partial curve, poor fit]
34 | COC(=O)c1cc(OC)c(OC)cc1NC(=O)c1ccc(OC)cc1 | inactive
35 | O=C1NC(=S)NC1=Cc1ccco1 | inconclusive: 3.55 µM [activator, full curve]
36 | CNc1sc(C(=O)c2ccccc2F)c(N)c1-c1nc2ccccc2s1 | inactive
37 | CC1CCc2cc(F)ccc2N1C(=O)c1cccnc1 (configuration not stated) | inactive
38 | S=C(NCCc1ccccc1)NCC1CCCO1 (configuration not stated) | inconclusive: 15.8 µM [activator, single point]
39 | CC1CCN(C(=O)C2CCC(C)(C(=O)O)C2(C)C)CC1 (configuration not stated) | inconclusive: 10 µM [activator, partial curve]
40 | Cn1cc(-c2cc3n(n2)CCC(=O)N3CCCC(=O)NCc2ccccc2Cl)c2ccccc21 | inconclusive: 35.5 µM [inhibitor, single point]
41 | COc1ccc(NC(=O)c2ccc(CN(c3cc(Cl)ccc3C)S(=O)(=O)c3ccccc3)cc2)cc1OC | inactive
42 | CC(C)CCn1c(SCc2cccc(F)c2)nc2ccsc2c1=O | inconclusive: 31.6 µM [activator, single point]
